PubChem BioAssay AID504791, Drosophila RNAi Screening Center | 2011

Purpose: 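Genes of the fly required for silencing by miRNA, siRNA or endo-siRNA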 (primary screen)
System: Drosophila S2-derived reporter cells
Reagents: long dsRNA against Drosophila genes, about 150-250 ng dsRNA per well (siRNA assay); about 80-120 ng (miRNA assay)
Time to read-out: about 5 days (siRNA assay); about 4 days (miRNA assay)
Treatment: copper sulfate induction of reporters: 25 µM (siRNA assay); 200 mM stated (miRNA assay), 1-2 days before reading
Detection: 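Per-well ratio of Renilla over firefly light, expressed relative to that plate's average ratio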
Units: stable assay Renilla, run 1 in luminescence; stable assay firefly, run 1 in luminescence
Call rule: 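a well was a first-pass pick when its plate-scaled ratio rose above 1.5 (siRNA assay) or 1.6 (miRNA assay), or dropped below 0.6; a gene counted only if two separate dsRNAs agreed on retest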
In all, the deposit lists about 23,000 reagents; shown is a random part of those with a known target gene and a result. In the full data, 199 (0.86%) were called active. 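Plate-scaled ratios behind the calls are not deposited; printed light signals are raw; many rows marked increased or decreased are still called inactive.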 Unmarked entries are inactive. Reagents against one gene are numbered here. A plus sign joins genes that one reagent is predicted to hit. Reagent sequences are not shown. The record does not give: the direction of the score.

For Corin the deposit lists stable assay Renilla, run 1 = 5668; stable assay firefly, run 1 = 4.99e5.
For BBS5 (Bardet-Biedl syndrome 5) the deposit lists stable assay Renilla, run 1 = 7727; stable assay firefly, run 1 = 3.53e5.
After knock-down of sns (sticks and stones) #1, the record shows stable assay Renilla, run 1 = 5298; stable assay firefly, run 1 = 2.50e5.
Silencing of sns (sticks and stones) #2 resulted in: stable assay Renilla, run 1 = 10130; stable assay firefly, run 1 = 4.79e5.
Depletion of sns (sticks and stones) #3 came out at: stable assay Renilla, run 1 = 2508; stable assay firefly, run 1 = 3.23e5.
With knock-down of sns (sticks and stones) #4, the screen gave stable assay Renilla, run 1 = 7179; stable assay firefly, run 1 = 4.64e5.
sns (sticks and stones) #5 showed stable assay Renilla, run 1 = 7059; stable assay firefly, run 1 = 4.97e5.
After knock-down of sns (sticks and stones) #6 the results were stable siRNA reporter change reporter ratio raised past the hit cutoff; stable assay Renilla, run 1 = 6847; stable assay firefly, run 1 = 2.33e5.

Laid out differently: entries from further up.
gene,reagent no.,stable siRNA reporter change,"stable assay Renilla, run 1","stable assay firefly, run 1"
Corin,1,,5668,4.99e5
BBS5 (Bardet-Biedl syndrome 5),1,,7727,3.53e5

Further records:
Knock-down of Cp110 (Centriolar coiled coil protein 110kDa) #1 gave: stable assay Renilla, run 1 = 6932; stable assay firefly, run 1 = 4.42e5.
After knock-down of Cp110 (Centriolar coiled coil protein 110kDa) #2 the results were stable assay Renilla, run 1 = 8458; stable assay firefly, run 1 = 4.95e5.
Against CG12539, the values are stable assay Renilla, run 1 = 5686; stable assay firefly, run 1 = 3.51e5.
Against ci (cubitus interruptus), the values are stable assay Renilla, run 1 = 6072; stable assay firefly, run 1 = 4.52e5.
Knock-down of ERp44 (Endoplasmic reticulum protein 44) came out at: stable assay Renilla, run 1 = 8303; stable assay firefly, run 1 = 6.79e5.
CG13492 scored stable assay Renilla, run 1 = 6566; stable assay firefly, run 1 = 3.10e5.
For C901, the entry reads stable assay Renilla, run 1 = 4564; stable assay firefly, run 1 = 3.07e5.
CG13532 scored stable assay Renilla, run 1 = 6063; stable assay firefly, run 1 = 3.57e5.
Knock-down of hpRNA:CR18854 + IP3K1 resulted in: stable assay Renilla, run 1 = 7244; stable assay firefly, run 1 = 3.96e5.
After knock-down of CG42729, the record shows stable assay Renilla, run 1 = 6687; stable assay firefly, run 1 = 5.44e5.
Desat2 (Desaturase 2) gave stable assay Renilla, run 1 = 6251; stable assay firefly, run 1 = 3.23e5.
